Tested on: Tet(X7)
Test: Fluorescence polarisation binding assay of probes with purified TDase
Procedure: NADPH was not included to prevent turnover of the probe to the hydroxylated product, which would likely have a lower binding affinity than the initial probes. Screens were conducted in pH 7.0 buffer with addition of 0.01% Triton-X100 detergent in non-binding plates to minimise adsorption to the plate wells.[45]
Aliquots of TDases were thawed and serially diluted with the assay buffer (100 mM Tris, pH 7.0 with 0.01% Triton X-100) in a V-bottom 96-well plate (Greiner Bio-One). 12.5 μL of each concentration of enzyme was transferred in quadruplicate to a 384-well black, non-binding microtiter plate (Greiner Bio-One). Aliquots of 2 mM stock of fluorescent probes 5 and 6 in DMSO were thawed and diluted to 50 nM in the assay buffer with 2 μM FAD and 10 mM MgCl2. 12.5 μL of this solution was added to wells containing enzyme. A negative control of 12.5 μL of the probe solution with 12.5 μL of the assay buffer was included on each plate. The plate was briefly centrifuged (1000 rpm), then incubated at ambient temperature for 30 min before measuring the FP response using a PHERAstar FS microplate reader (BMG Labtech) equipped with an FP optic module (excitation = 540 ± 20 nm, Emission = 590 ± 20 nm, 200 flashes per well). ΔmP values were calculated by subtracting the average mP of the negative controls from the mP measured for each well. […]

Compound	difference in Kd between Tet(X3) and Tet(X7) [fold]
CN(C)c1ccc2c(-c3ccc(NC(=S)NCC(=O)Nc4cc(N(C)C)c5c(c4O)C(=O)C4=C(O)[C@]6(O)C(=O)C(C(N)=O)=C(O)C(N(C)C)[C@@H]6C[C@@H]4C5)cc3C(=O)[O-])c3ccc(=[N+](C)C)cc-3oc2c1 (some centres unmarked) [Probe 6, TRITC-glycyl-minocycline]	~5
CN(C)c1ccc2c(-c3ccc(C(=O)NCC(=O)Nc4cc(N(C)C)c5c(c4O)C(=O)C4=C(O)[C@]6(O)C(=O)C(C(N)=O)=C(O)[C@H](N(C)C)[C@@H]6C[C@@H]4C5)cc3C(=O)[O-])c3ccc(=[N+](C)C)cc-3oc2c1 [Probe 5]	~5

Source: publication PMC12056667 (Chemical Science, 2025)
